No constants are given. Whether binding was seen depends on the method and setting. Some binding calls cover weakened binding; strength is not graded here.
Experiments:
[1] = biological target: PILRA Fc (soluble human PILRA) (human) (UniProt Q9UKJ1); experiment: flow cytometry, graph 'Enhancer on CD3+T Blocking Assay': antibody mixed with PILRA-Fc, then human CD3+ T cells; bound PILRA-Fc detected with AF647 2nd Ab; partner of PILRA-Fc: PILRA ligand on the T cells
[2] = biological target: human PILRA on the surface of primary human macrophages or monocytes (human) (UniProt Q9UKJ1); experiment: flow cytometry competition assay, graph 'Compitition-MFI-DNR1408': macrophages with soluble antibody 30 minutes on ice; competitor: sheep anti-hPILRA APC
[3] = biological target: PILRA Fc (soluble human PILRA) (human) (UniProt Q9UKJ1); experiment: flow cytometry blocking assay, graph 'V1 Blocking_CD3+T Donor 906': antibody mixed with PILRA-Fc, then human CD3+ T cells; bound PILRA-Fc detected with AF647 2nd Ab; blocked partner: PILRA ligand on the T cells
[4] = biological target: human PILRA, G78 variant, ectopically expressed on 293 cells (human) (UniProt Q9UKJ1); experiment: screening summary, TCP groups

The chains behind the UniProt entries cited, without tags or fusion partners. Where a name states a change or a piece, a line headed by the entry shows the natural chain unless it says otherwise.
UniProt Q9UKJ1: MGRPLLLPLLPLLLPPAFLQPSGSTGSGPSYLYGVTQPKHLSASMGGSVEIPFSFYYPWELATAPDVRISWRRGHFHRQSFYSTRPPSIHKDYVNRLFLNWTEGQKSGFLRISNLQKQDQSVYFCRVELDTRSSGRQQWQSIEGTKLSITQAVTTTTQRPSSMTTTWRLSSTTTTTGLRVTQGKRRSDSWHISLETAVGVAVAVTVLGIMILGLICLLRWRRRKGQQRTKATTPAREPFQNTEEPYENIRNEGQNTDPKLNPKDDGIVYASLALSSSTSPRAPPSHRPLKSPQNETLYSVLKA

Row | Binder | binding [1] | binding [3] | also measured
1 | E3 (antibody, V domains shown) VH: QAYLQQSGAELVRSGASVKMSCKASGNTFTYYNLHWIRQTPGQGLEWIGYIFPGNGDAYYNQNFKGKATLTADTSSSTAYMQISSLTFEDSAVYFCARSPHYYGSGFDYWGQGTPLTVSS VL: DIQMTQSSSYLSVSLGGGVTITCKASDHINNWLAWYQQKPGNAPRLLISGATSLETGVPSRFSGSGSGKDYTLSITSLQTEDVATYYCQQYWSTPWTFGGGTKLEIK | binds |  | 
2 | E15 (antibody, V domains shown) VH: QVQLQQSGAELVKPGASVKLSCKASGNTFTIYDINWVRQRPEQGLEWIGWIFPGDGSTKYNGKFKGKATLTTDKSSSTAYMQLSRLTSEDSAVYFCARRAHYYGSSFDYWGQGTTLTVSS VL: DIQMTQSSSYLSVSLGGRVTITCKASDHINNWLAWYQQKPGNGPRLLISGAISLEIGVPSRFSGSGSGKEYTLSITSLQTEDVATYYCQQYWSPPWTFGGGTKLEIK |  |  | binding [2]: binds
3 | hPA-002 (antibody, V domains shown) VH: QVTLQESGPGILQPSQTLSLTCSFSGFSLSTFGMGVGWIRQPSGKGLEWLAHIWWDDDKYYNPALKSRLTISKDTSKNQVFLKIASVDTADIATYYCARVEDYGNPFDYWGQGTTL VL: DIQMNQSPSSLSASLGDTITITCHASQNIHVWLNWYQQKPGNIPKLLIYKASNLHTGVPSRFSGSGSGTGFTVTISSLQPEDIATYYCQQGQSYPLTFGAGTKLELK |  | binds | 
4 | C7 (antibody, V domains shown) VH: QVQLQQSGAELARPGTSVKLSCKASGYIFTDYAISWVKQRTGQGLQWIGEIYPGSDNAYYNENFKGKATLTADKSSNTAYMELRSLTSEDSAVYFCAKWAGSLFDFWGQGTALTVSS VL: DIVMTQSQKFMSTSVGDRVSVTCKASRNVGFNVAWYQQNPGQSPKALIYSASYRYSGVPDRFTGSGSGTDFTLTISDVQSEDLAEYFCHQYNSYPYTFGGGTKLEIR |  |  | binding [4]: binds
5 | E2 (antibody, V domains shown) VH: EVQLQESGPSLVKPSQTLSLTCSVTGDSITSGYWNWIRKFPGDKLEYMGYISYTGTTYYNPSLKSRVSITRDTSKNQYYLQLHSVTTEDTATYYCARYPYGNFPFDYWGQGTTLTVSS VL: SIVMTQTPKFLLVSAGDRVTITCKASQSVRNDVAWYQQRPGQSPKLLIFYASSRYIGAPDRFTGSGYGTDFTFTISTVQAEDLAVYFCQQDYSSPYTFGGGTTLEIK | binds |  | 

The next lines start with results.

Row | binding [1] | binding [3] | Binder | also measured
6 | binds |  | E1 (antibody, V domains shown) VH: EVQLVESGGGLVQPGESLKLSCESNEYEFPSHDMSWVRKTPEKRLELVAAINSDGGSTYYPDTMERRFIISRDNTKKTLYLQMSSLRSEDTALYYCARQLMGTGAMDYWGQGTSVTVSS VL: DIQMTQSSSYLSVSLGGRVTITCKASDHINNWLAWYQQKPGNAPRLLISGATSLETGVPSRFSGSGSGKDYTLSITSLQTEDVATYYCQQYWSTPYTFGGGTKLEIK | 
7 |  | binds | hPA-004 (antibody, V domains shown) VH: QVTLKESGPGMLQPSQTLSLACSFSGFSLNSFGVAVGWIRQPSGKGLEWLAHIWWDDDKSYNPALKSRLTISKDTSKNQVFLKLANVDTADTATYYCTRIADYGNHFDYWGQGTALTVSS VL: DIQMNQSPSSLSASLGDTITITCHASQNSHVWLSWYQQKPGNIPKLLIYKASNLHTGVPSRFSGSGSGTGFTLTISGLQPEDIATYYCQQGQTYPFTFGSGTKLEIK | 
8 |  | binds | hPA-005 (antibody, V domains shown) VH: QVILKESGPGILQSSQTLSLTCSFSGFSLSTFGMGVGWIRQPSGKGLESLAHIWWDDDKFYNPALKSRLTISKDTSKSQVFLKIANVDTADIATYYCTRIEDYGSYFAYWGQGTTLTVSS VL: DVQMNQSPSSLSASLGDPITITCHASQNIHVWLNWYQQRPGNIPRLLIYKASNLHTGVPSRFSGSGSGTGFTLTISSLQPEDIATYYCQQGQSYPYTFGGGTKLEIK | 

From patent US20240425587A1
